According to patent publication US20210340270A1 (Amgen, published 2021):
No constants are given. Whether binding was seen depends on the method and setting. Some entries that bind do so weakly or less than the wild type.

Amino acid sequences for entries named in this document (tags omitted). A change or cut given only in a name is not applied to a line headed by its entry.
UniProt P78504: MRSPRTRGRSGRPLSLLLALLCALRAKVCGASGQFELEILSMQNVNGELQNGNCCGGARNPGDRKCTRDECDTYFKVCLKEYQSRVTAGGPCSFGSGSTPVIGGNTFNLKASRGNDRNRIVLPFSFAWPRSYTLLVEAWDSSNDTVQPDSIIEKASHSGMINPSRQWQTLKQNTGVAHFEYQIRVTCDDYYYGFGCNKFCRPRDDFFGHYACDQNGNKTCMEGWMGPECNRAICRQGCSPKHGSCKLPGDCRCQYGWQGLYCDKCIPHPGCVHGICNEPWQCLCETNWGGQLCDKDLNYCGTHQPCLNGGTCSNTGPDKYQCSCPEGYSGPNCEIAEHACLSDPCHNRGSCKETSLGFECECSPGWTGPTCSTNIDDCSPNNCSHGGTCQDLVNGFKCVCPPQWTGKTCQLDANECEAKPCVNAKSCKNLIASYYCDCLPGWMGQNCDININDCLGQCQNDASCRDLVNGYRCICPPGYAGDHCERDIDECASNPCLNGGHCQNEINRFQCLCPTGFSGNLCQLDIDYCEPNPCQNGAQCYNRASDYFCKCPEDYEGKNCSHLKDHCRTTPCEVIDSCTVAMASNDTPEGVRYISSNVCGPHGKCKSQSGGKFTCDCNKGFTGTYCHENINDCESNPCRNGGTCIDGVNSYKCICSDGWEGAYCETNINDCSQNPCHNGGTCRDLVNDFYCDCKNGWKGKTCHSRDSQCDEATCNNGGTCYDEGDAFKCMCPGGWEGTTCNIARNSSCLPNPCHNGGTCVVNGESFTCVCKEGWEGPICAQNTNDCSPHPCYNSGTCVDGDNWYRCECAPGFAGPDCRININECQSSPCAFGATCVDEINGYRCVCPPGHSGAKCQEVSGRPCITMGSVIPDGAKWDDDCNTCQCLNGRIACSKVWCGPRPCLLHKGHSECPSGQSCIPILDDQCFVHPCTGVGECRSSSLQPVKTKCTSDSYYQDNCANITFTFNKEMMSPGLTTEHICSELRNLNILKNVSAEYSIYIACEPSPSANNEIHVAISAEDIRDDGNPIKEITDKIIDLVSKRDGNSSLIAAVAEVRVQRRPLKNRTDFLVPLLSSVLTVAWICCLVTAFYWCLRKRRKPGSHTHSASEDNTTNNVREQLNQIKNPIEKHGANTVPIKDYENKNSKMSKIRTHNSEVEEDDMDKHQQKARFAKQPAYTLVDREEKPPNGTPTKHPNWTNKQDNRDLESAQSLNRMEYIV

Experiments:
[1] = target: Recombinant Human Jagged 1 Fc chimera (R&D Systems Cat #: 1277-M-050) (human) (UniProt P78504); assay: ELISA, 1 ug/ml ligand coated on the plate, 15D11.1 titrated, detection with peroxidase anti-human Fab, absorbance 450 nm
[2] = target: Human JAG1/Jagged1 His Tag (Sino Biological Cat #: 11648-H08H) (human) (UniProt P78504); assay: as above
[3] = target: Recombinant Human Jagged 1 Fc chimera (R&D Systems Cat #: 1277-M-050) (human) (UniProt P78504); assay: ELISA on recombinant purified Notch ligands
[4] = target: Human JAG1/Jagged1 His Tag (Sino Biological Cat #: 11648-H08H) (human) (UniProt P78504); assay: ELISA on recombinant purified Notch ligands
[5] = target: recombinant human Jagged1 extracellular domain (Met 1-Ser 1046), fused with a polyhistidine tag at the C-terminus (Creative Biomart Cat #JAG1-3226H) (human) (UniProt P78504); assay: Octet (biolayer interferometry), 15D11.1 captured on anti-human Fc biosensors, soluble hJagged1 ECD-His as analyte (50, 15.3, 5.1, 1.7 and 0.56 nM per paragraph 358)

- binding [1]: binds
- binding [2]: binds
- binding [3]: binds
- binding [4]: binds
- binding [5]: binds
B1: anti-hJagged1 mAb 15D11.1 (antibody, V domains shown)
VH: QVTLKESGPVLVKPTETLTLTCTVSGFSLSNAEMGVSWIRQPPGKALEWLAHLFSNDEKSYSTSLKSRLTISKDTSKSQVVLTMTDLDPVDTATYYCARSFNWNYDFDYWGQGTLVTVSS
VL: QSALTQPASVSGSPGQSITISCTGTSSAVGGHNFVSWYQQYPGKAPKLMIYEVSNRPSGVSTRFSGSKSGNTASLTISGLQAEDEADYYCSSYTSSSTWVFGGGTRLTVL
notes: Fully human monoclonal antibody from XenoMouse (XMG2-KL / XMG4-KL) hybridomas; also called iPS:480499; anti-Jag-1 15D11.1
